According to PubChem BioAssay AID1487 (National Center for Advancing Translational Sciences (NCATS), 2009):
The list shows a part of the results. Further columns of the screen follow, without active or inactive calls. Compounds called inactive in the main read-out are mostly missing here. Potencies come from curve fits of mixed quality, noted in brackets.

Assay: qHTS Assay for Modulators of Lamin A Splicing
Conditions: HeLa LMNA splicing GFP/RFP minigene ratio, 48 h
Method in brief: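 S3 HeLa stable clones carrying a lamin A-EGFP splicing minigene plus DsRed2 were seeded at 600 cells/well in Opti-MEM with 2% FBS, pin-dosed and incubated 48 h at 37°C. Acumen cytometry (488 nm) gave the GFP/RFP total-intensity ratio.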

[1] = measured here: GFP splicing reporter channel
[2] = measured here: RFP viability control channel

| SMILES | AC50 [1] | AC50 [2] |
| --- | --- | --- |
| CCCCNc1ccc(S(=O)(=O)c2cccc([N+](=O)[O-])c2)cc1[N+](=O)[O-] | 17.8 µM [rising, single point] | 20 µM [rising, partial curve] |
| O=C(NCC(c1ccco1)N1CCN(c2ccc(F)cc2)CC1)OCc1ccccc1 (stereo not given) |  | 35.5 µM [rising, single point] |
| CCN(C(=O)CN1C(=O)c2ccccc2Sc2ccc(C(=O)OC)cc21)c1cccc(C)c1 |  | 11.2 µM [rising, partial curve] |
| O=C(O/N=C\c1ccc(N2CCCCC2)c([N+](=O)[O-])c1)c1cccc(C(F)(F)F)c1 |  | 5.62 µM [rising, single point] |
| COc1ccc(C(=O)c2ccccc2O)c(O)c1 | 0.0355 µM [falling, full curve, poor fit] | 14.1 µM [rising, single point] |
| Cc1nc(C)c(C(=O)NCc2ccccc2Cl)o1 | 10 µM [rising, partial curve, poor fit] | 12.6 µM [rising, partial curve] |
| Cc1nc(C)c(C(=O)Nc2ccc(Oc3ccccc3)cc2)o1 |  | 3.98 µM [rising, partial curve] |
| CC1CC(C)CN(c2ncnc3c2cnn3Cc2ccc(Cl)cc2)C1 (stereo not given) | 28.2 µM [rising, single point] | 31.6 µM [rising, single point] |
| Cc1c(NS(=O)(=O)c2cccs2)c(=O)n(-c2ccccc2)n1C |  | 3.98 µM [falling, partial curve, poor fit] |
| Cc1c(C(=O)N2CCN(c3ccc(C(F)(F)F)cn3)CC2)oc2ccccc12 |  | 35.5 µM [rising, single point] |
| Cn1c(=O)n(CCOc2ccccc2Cl)c2ccccc21 | 17.8 µM [rising, partial curve, poor fit] | 20 µM [rising, partial curve, poor fit] |
| CC(C)C1CC(=O)NC(SCC(=O)Nc2ccc(Br)cc2)=C1C#N (stereo not given) | 8.91 µM [rising, partial curve] | 12.6 µM [rising, partial curve] |
| Cc1ccc2ccc3cc(C(=O)N4CCN(c5ccccc5F)CC4)nc3c2[nH]1 | 0.0141 µM [falling, full curve, poor fit] | 0.0112 µM [falling, full curve, poor fit] |
| Cc1cccc(-c2nc(SCc3cc(=O)c4c(C)cc(C)cc4[nH]3)n[nH]2)c1 |  | 35.5 µM [falling, single point] |
| Clc1ccc(C2=Nn3c(nnc3-c3n[nH]c4c3CCC4)SC2)cc1Cl | 35.5 µM [falling, single point] | 35.5 µM [falling, single point] |
| COc1ccc(C)cc1NC(=O)CSc1nnc(-c2ccco2)n1Cc1ccco1 | 14.1 µM [rising, single point] | 12.6 µM [rising, single point] |
| CCOC(=O)c1c(-c2ccccc2)csc1NC(=O)CCN1CCOCC1 |  | 12.6 µM [rising, partial curve] |
| CCC(C)C(=O)OC1CCC=C2C=CC(C)C(CCC3CC(O)CC(=O)O3)[C@@H]21 (stereo not given in full) | 35.5 µM [falling, single point] | 35.5 µM [falling, single point] |
| Cc1ccc(N=c2oc3cc(O)ccc3cc2C(N)=O)cc1 | 12.6 µM [rising, partial curve, poor fit] | 25.1 µM [rising, single point] |
| COc1ccccc1Oc1cc(C#N)c(C#N)cc1-n1nnc2ccccc21 | 22.4 µM [rising, partial curve, poor fit] | 35.5 µM [rising, single point] |
| CSc1nnc(-c2ccccc2SC)o1 |  | 0.00282 µM [falling, full curve, poor fit] |
| CC(=O)N1CCCc2ccc(NC(=O)c3ccc(OC(C)C)cc3)cc21 | 25.1 µM [falling, partial curve, poor fit] | 0.00708 µM [falling, full curve] |
| Cc1ccc2nc(COc3ccccc3NC(=O)Nc3ccc(F)c(Cl)c3)cc(=O)n2c1 | 35.5 µM [falling, single point] | 35.5 µM [falling, partial curve] |
| c1ccc(CCn2nnnc2C(c2cccnc2)N2CCN(c3nc4ccccc4s3)CC2)cc1 (stereo not given) | 14.1 µM [rising, partial curve] | 15.8 µM [rising, partial curve] |
| Cc1ccc(NS(=O)(=O)c2cc(C(=O)NCCSC3CCCCC3)ccc2C)cc1 |  | 11.2 µM [rising, partial curve] |
| Cc1ccccc1S(=O)(=O)Cc1ccc(C(=O)N2CCN(c3cccc(C)c3C)CC2)o1 | 15.8 µM [falling, partial curve] | 2.82 µM [rising, partial curve] |

| SMILES | AC50 [1] | AC50 [2] |
| --- | --- | --- |
| COc1cccc2cc(-c3nc4sc5c(c4c(=O)[nH]3)CCC(C(C)(C)C)C5)c(=O)oc12 (stereo not given) | 5.62 µM [falling, partial curve] |  |
| Cc1cc(O)cc(=O)n1Cc1ccco1 | 0.0282 µM [rising, full curve, poor fit] | 0.0282 µM [rising, full curve, poor fit] |
| O=C(NCc1cccc(C(F)(F)F)c1)c1cccc(S(=O)(=O)NCc2ccccc2)c1 |  | 35.5 µM [rising, single point] |
| O=C(/C=C/c1ccc(F)cc1)Nc1cccc(S(=O)(=O)Nc2cccc(C(F)(F)F)c2)c1 |  | 1.41 µM [rising, full curve, poor fit] |
| Nc1nc(SCC(=O)Nc2ccccc2Sc2ccccc2)n[nH]1 |  | 12.6 µM [rising, partial curve, poor fit] |
| COc1ccc(OC)c(CCNC(=O)c2nc(-c3ccc(Cl)cc3)n3c2CCCCC3)c1 | 12.6 µM [rising, partial curve] | 14.1 µM [rising, single point] |
| O=C(NCCC1=CCCCC1)c1ccc(F)c(S(=O)(=O)N2CCOCC2)c1 | 11.2 µM [rising, partial curve, poor fit] | 15.8 µM [rising, partial curve] |
| N/C(Cc1ccc([N+](=O)[O-])cc1)=N\OC(=O)COc1ccc2ccccc2c1 | 28.2 µM [rising, single point] | 35.5 µM [rising, single point] |
| CSc1nc2ccccc2n1CC(=O)Nc1ccc(C)c(C)c1 |  | 22.4 µM [rising, single point] |
| N#Cc1c(NC(=O)c2ccc(Cn3cc(Br)cn3)o2)sc2c1CCCCCC2 |  | 8.91 µM [rising, partial curve] |
| Cc1cc(C(=O)CSc2nc(N)cc(N)n2)c(C)n1-c1cccc(F)c1 | 0.355 µM [rising, partial curve] | 14.1 µM [rising, partial curve] |
| Cc1ccc(C[n+]2cccc(-c3ccccc3)c2)c(C)c1 | 3.98 µM [rising, full curve] | 6.31 µM [rising, full curve] |
| Fc1ccc(-c2noc(C3CCN(Cc4cccnc4)CC3)n2)cc1 |  | 15.8 µM [rising, partial curve] |
| Cc1ccc(OCC(=O)Nc2ccc(N3CCN(C(=O)c4ccc(C)cc4)CC3)cc2)cc1 |  | 4.47 µM [falling, partial curve, poor fit] |
| Cc1ccc(C(=O)CSc2nc(C)cc(C)c2C(=O)Nc2cccc(C)c2)cc1 |  | 12.6 µM [rising, single point] |
| Cc1ccc2nc(Cl)c(/C=N/Nc3nc(C)cc(C)n3)c(=O)n2c1 | 8.91 µM [rising, partial curve, poor fit] | 12.6 µM [rising, partial curve] |
| COC(=O)C1=C(C)N(C)C(=S)N(C)C1c1cccc(Br)c1 (stereo not given) |  | 0.562 µM [rising, partial curve] |
| CN(C)C=Nc1ncc2c3ccccc3n(CCN(C)C)c2c1C#N |  | 35.5 µM [rising, single point] |
| Cc1ccc(-c2csc(NC(=O)c3ccc(S(=O)(=O)N4CCc5ccccc54)cc3)n2)cc1 | 2 µM [rising, full curve] | 7.08 µM [rising, partial curve] |
| CCOC(=O)N1CCC(NC(=O)c2ccc3c(c2)sc2nc(-c4cccc(OC)c4)cn23)CC1 | 35.5 µM [falling, single point] | 3.55 µM [rising, single point] |
| Cc1ccccc1N1CCN(C2=NC(=O)/C(=C\c3cccs3)S2)CC1 | 31.6 µM [rising, single point] | 31.6 µM [rising, single point] |
| CN(C)CCCNc1ncc(C(F)(F)F)cc1Cl | 3.98 µM [rising, partial curve] |  |
| CCc1ccc(C(=O)O)cc1 | 4.47 µM [rising, partial curve] |  |
| CC(=O)Nc1ccc(OCC(O)Cn2c3ccccc3c3ccccc32)c(C)c1 (stereo not given) |  | 22.4 µM [falling, single point] |
| COc1ccc(CNc2ncncc2-c2ccc(N(C)C)cc2)c(OC)c1 | 17.8 µM [falling, partial curve] | 17.8 µM [falling, partial curve, poor fit] |
| NC(=O)Cn1nc(C(F)(F)F)c2c1CCCC2 | 0.112 µM [falling, partial curve] | 0.355 µM [falling, full curve, poor fit] |

A draw from above in order of SMILES length, rising:

| SMILES | AC50 [1] | AC50 [2] |
| --- | --- | --- |
| CCc1ccc(C(=O)O)cc1 | 4.47 µM [rising, partial curve] |  |
| CN(C)CCCNc1ncc(C(F)(F)F)cc1Cl | 3.98 µM [rising, partial curve] |  |
| Cc1ccc(C[n+]2cccc(-c3ccccc3)c2)c(C)c1 | 3.98 µM [rising, full curve] | 6.31 µM [rising, full curve] |
| Nc1nc(SCC(=O)Nc2ccccc2Sc2ccccc2)n[nH]1 |  | 12.6 µM [rising, partial curve, poor fit] |
| Fc1ccc(-c2noc(C3CCN(Cc4cccnc4)CC3)n2)cc1 |  | 15.8 µM [rising, partial curve] |
| COC(=O)C1=C(C)N(C)C(=S)N(C)C1c1cccc(Br)c1 (stereo not given) |  | 0.562 µM [rising, partial curve] |
| COc1ccc(CNc2ncncc2-c2ccc(N(C)C)cc2)c(OC)c1 | 17.8 µM [falling, partial curve] | 17.8 µM [falling, partial curve, poor fit] |
| Cc1ccc(C(=O)CSc2nc(C)cc(C)c2C(=O)Nc2cccc(C)c2)cc1 |  | 12.6 µM [rising, single point] |
| COc1ccc(OC)c(CCNC(=O)c2nc(-c3ccc(Cl)cc3)n3c2CCCCC3)c1 | 12.6 µM [rising, partial curve] | 14.1 µM [rising, single point] |
| Cc1ccc(OCC(=O)Nc2ccc(N3CCN(C(=O)c4ccc(C)cc4)CC3)cc2)cc1 |  | 4.47 µM [falling, partial curve, poor fit] |
| Cc1ccc(-c2csc(NC(=O)c3ccc(S(=O)(=O)N4CCc5ccccc54)cc3)n2)cc1 | 2 µM [rising, full curve] | 7.08 µM [rising, partial curve] |
| O=C(/C=C/c1ccc(F)cc1)Nc1cccc(S(=O)(=O)Nc2cccc(C(F)(F)F)c2)c1 |  | 1.41 µM [rising, full curve, poor fit] |
